According to the supplement of paper PMC10849652:
The other results are listed elsewhere or left out.

By UniProt entry, the sequences of proteins in these tests, tags left out. Where a name states a change or a piece, a line headed by the entry shows the natural chain unless it says otherwise.
UniProt P09884: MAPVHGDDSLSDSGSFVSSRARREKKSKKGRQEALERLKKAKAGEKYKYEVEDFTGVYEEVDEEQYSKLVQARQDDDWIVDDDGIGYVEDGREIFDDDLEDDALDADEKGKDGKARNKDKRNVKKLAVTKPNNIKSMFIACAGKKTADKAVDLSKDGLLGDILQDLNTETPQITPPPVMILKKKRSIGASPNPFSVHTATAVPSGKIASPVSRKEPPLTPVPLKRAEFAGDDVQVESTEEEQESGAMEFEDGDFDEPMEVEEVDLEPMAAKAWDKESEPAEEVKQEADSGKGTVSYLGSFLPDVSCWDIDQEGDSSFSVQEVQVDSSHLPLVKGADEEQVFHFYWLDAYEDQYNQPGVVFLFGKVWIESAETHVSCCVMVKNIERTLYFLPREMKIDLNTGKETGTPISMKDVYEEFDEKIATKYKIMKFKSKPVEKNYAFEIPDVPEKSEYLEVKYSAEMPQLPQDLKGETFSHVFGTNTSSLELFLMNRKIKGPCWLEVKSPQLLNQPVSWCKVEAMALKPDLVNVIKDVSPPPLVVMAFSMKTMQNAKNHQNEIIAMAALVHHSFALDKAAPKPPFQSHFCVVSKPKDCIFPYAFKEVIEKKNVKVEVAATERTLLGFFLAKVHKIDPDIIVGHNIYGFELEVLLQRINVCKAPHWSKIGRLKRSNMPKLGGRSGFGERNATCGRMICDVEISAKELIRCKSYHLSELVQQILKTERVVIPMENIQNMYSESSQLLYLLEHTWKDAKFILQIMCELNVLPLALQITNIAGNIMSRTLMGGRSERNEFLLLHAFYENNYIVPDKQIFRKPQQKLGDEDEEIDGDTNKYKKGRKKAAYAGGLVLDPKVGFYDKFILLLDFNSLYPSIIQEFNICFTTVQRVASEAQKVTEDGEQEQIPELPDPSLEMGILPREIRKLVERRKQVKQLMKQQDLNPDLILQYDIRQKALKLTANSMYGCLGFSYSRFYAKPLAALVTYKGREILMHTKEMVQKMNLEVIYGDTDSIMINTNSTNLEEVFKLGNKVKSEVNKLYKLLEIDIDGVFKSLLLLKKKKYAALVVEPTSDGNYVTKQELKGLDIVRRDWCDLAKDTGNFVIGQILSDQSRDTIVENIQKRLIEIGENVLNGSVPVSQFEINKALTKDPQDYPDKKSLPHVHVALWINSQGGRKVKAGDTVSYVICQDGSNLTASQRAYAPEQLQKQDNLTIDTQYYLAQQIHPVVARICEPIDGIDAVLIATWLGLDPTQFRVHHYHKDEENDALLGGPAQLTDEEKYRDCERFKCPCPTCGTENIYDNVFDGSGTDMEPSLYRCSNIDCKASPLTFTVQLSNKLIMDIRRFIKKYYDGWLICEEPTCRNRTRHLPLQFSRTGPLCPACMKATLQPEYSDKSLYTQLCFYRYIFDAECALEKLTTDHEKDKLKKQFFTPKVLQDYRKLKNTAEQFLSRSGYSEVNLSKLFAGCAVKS
UniProt Q9HBL7: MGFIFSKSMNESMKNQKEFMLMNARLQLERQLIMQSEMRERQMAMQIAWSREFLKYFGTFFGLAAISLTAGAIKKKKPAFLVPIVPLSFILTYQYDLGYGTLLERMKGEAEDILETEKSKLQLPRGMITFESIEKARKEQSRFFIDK
UniProt Q9Y3C6: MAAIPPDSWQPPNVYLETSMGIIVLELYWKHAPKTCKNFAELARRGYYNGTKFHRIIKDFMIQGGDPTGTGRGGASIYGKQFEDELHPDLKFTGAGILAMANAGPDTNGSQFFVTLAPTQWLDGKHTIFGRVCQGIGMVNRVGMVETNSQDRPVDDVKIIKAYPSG
UniProt P41247: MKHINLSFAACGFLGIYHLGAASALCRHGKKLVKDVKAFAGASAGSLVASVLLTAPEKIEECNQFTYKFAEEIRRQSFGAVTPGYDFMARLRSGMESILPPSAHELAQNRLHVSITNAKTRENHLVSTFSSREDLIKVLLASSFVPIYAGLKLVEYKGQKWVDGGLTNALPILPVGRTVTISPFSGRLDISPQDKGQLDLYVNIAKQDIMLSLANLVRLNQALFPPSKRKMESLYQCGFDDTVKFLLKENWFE
UniProt Q9H2H8: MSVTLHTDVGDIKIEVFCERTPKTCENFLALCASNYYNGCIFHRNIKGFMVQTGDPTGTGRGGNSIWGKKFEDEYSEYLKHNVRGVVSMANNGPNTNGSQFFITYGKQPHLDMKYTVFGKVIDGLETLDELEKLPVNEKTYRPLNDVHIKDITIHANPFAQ
UniProt P29590: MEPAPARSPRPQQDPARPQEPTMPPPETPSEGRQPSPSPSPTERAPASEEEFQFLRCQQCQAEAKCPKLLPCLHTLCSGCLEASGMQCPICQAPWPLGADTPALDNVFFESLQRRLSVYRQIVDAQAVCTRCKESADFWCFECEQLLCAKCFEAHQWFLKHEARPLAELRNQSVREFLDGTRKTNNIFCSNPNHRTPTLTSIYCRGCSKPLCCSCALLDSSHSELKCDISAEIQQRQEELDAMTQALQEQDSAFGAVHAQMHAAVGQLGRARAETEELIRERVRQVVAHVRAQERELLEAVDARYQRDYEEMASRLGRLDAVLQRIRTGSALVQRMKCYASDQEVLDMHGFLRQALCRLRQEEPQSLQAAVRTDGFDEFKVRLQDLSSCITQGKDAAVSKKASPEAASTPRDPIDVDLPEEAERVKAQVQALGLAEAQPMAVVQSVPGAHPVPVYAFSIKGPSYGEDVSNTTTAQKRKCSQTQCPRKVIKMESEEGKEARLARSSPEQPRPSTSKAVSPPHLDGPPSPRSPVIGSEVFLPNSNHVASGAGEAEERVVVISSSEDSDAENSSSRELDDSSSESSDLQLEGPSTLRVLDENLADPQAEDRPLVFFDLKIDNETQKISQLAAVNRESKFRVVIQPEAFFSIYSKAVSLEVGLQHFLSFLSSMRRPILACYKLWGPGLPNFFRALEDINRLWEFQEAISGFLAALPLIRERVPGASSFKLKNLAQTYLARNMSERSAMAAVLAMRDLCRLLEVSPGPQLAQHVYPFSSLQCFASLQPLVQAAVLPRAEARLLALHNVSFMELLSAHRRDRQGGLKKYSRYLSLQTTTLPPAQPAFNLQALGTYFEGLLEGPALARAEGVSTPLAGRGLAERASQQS
UniProt Q13794: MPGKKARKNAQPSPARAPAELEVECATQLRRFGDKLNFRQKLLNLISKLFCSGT
UniProt P05423: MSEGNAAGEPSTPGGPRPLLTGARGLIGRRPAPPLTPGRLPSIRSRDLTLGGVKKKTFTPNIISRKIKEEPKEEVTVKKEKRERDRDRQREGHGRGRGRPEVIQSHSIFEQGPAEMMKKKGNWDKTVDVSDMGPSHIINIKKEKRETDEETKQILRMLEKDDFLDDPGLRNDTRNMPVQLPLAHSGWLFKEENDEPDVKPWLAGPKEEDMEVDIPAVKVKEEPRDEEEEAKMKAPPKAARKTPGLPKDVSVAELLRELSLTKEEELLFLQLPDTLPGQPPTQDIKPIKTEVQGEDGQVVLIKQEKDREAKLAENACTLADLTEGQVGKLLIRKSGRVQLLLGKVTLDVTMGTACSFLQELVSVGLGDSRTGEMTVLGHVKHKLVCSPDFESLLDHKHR
UniProt P00747, whole entry, looked up: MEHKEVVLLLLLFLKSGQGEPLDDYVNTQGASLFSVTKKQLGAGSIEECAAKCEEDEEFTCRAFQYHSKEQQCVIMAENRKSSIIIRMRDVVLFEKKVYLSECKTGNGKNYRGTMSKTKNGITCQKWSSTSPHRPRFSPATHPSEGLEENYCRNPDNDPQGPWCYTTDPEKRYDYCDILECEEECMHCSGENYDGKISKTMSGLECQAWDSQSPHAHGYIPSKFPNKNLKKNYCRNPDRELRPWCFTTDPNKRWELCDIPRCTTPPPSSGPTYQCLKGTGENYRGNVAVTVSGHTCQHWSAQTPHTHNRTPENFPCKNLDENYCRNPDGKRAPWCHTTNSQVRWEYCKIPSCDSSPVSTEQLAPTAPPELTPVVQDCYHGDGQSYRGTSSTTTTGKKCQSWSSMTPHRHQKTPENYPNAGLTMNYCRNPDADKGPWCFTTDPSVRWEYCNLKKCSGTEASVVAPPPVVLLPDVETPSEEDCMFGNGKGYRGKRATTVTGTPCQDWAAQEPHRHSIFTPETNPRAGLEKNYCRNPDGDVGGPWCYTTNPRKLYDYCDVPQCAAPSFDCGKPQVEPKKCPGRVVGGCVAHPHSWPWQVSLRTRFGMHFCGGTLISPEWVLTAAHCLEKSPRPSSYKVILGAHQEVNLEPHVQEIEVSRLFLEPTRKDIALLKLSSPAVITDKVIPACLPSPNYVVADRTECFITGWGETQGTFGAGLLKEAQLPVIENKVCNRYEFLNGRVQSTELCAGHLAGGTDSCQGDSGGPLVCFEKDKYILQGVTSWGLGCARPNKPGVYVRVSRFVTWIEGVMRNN
UniProt O43157, whole entry, looked up: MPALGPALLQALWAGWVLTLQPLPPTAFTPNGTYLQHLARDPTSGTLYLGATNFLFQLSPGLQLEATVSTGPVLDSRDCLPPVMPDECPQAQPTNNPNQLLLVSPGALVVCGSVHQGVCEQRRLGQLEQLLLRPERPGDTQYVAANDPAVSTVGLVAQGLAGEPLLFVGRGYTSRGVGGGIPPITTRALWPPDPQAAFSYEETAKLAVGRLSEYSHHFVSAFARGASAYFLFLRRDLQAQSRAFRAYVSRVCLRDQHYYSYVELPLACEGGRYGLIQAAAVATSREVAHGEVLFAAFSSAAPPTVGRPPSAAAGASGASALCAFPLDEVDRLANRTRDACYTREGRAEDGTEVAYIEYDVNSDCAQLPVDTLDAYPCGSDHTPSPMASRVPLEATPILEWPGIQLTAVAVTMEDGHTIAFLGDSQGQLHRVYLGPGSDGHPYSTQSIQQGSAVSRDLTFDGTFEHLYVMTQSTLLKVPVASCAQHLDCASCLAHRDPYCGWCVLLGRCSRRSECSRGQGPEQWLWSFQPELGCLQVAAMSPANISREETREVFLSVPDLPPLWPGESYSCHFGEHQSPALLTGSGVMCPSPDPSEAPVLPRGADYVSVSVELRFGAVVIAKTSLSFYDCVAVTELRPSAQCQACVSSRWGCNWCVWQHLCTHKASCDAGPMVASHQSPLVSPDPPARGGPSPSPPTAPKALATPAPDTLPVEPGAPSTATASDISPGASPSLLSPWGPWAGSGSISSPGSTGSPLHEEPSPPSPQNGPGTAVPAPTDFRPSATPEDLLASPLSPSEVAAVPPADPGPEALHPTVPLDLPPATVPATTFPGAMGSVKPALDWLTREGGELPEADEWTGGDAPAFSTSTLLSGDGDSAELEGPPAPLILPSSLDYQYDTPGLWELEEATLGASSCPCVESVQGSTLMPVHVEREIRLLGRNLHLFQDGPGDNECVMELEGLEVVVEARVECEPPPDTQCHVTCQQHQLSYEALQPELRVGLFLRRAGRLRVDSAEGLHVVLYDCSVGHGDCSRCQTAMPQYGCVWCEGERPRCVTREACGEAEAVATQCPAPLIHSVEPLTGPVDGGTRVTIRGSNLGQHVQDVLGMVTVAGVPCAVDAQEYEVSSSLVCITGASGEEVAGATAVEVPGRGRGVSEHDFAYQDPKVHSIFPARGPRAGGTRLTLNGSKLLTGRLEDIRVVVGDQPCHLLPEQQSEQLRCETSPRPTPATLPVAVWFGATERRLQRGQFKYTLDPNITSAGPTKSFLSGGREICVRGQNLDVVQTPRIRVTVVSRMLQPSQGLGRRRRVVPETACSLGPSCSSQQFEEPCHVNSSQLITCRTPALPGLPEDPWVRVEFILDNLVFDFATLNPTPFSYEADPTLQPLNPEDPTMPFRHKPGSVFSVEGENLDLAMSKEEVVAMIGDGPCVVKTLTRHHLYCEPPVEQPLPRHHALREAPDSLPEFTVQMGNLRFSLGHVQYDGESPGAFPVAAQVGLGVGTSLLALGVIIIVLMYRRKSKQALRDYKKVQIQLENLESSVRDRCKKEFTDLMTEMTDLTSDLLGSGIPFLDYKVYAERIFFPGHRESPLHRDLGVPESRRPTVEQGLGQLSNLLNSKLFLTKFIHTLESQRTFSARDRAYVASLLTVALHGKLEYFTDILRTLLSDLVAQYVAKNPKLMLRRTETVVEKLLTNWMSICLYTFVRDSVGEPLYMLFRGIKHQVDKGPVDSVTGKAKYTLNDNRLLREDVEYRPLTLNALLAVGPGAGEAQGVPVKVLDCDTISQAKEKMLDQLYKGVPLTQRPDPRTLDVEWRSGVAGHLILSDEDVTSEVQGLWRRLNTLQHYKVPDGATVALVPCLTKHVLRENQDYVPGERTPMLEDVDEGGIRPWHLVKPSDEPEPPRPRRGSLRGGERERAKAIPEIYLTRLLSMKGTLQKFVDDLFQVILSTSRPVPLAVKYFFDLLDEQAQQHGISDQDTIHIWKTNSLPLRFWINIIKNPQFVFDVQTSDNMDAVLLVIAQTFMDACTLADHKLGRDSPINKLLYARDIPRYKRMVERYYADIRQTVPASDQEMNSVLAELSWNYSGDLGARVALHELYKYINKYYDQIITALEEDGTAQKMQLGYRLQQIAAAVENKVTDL

Experiments:
Test in all cases: log2 fold change, soluble protein after heating vs DMSO (PISA); higher = thermal stabilisation; K562 cells, 10 uM, 30 min; active = over 0.2 and 3.5 SD of the protein, either way, in both replicates (recomputed)
[1] = compound: CS(=O)(=O)c1ccc(-c2cnc(N)c(C(=O)Nc3ccccc3)n2)cc1
Outline: (§1)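 Quantification of soluble protein used TMTpro 16plex LC-MS/MS, with channel sums equalised. Samples were the supernatant after 21,000xg for 90 min of pooled aliquots from K562 cells (2×10^6 cells/mL) treated with 10 μM compound for 30 min, heated for 3 min over 48°C-58°C, and extracted in PBS with 0.5% NP-40 at 4°C. Values, from duplicates, describe thermal stability against control samples on a log2 fold-change scale.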

[2] = compound: C[C@@H](Oc1cc(-c2cnn(C3CCNCC3)c2)cnc1N)c1c(Cl)ccc(F)c1Cl [crizotinib]
Outline: as §1

[3] = compound: C[C@@H]1COCCN1C2=NC(=NC(=C2)C3(CC3)S(=O)(=O)C)C4=C5C=CNC5=CC=C4
Outline: as §1

[4] = compound: C[C@H](C1=CC=C(C=C1)C(=O)NC2=C3C=CNC3=NC=C2)N
Outline: as §1

[5] = compound: Cc1cc(Nc2cc(CN3CCOCC3)c3nc(C)c(Cc4ccc(Cl)cc4F)n3n2)n[nH]1 [gandotinib]
Outline: as §1

[6] = compound: Cc1cc(SCc2sc(-c3ccc(C(F)(F)F)cc3)nc2C)ccc1OCC(=O)O
Outline: as §1

[7] = compound: Cc1ccc(-n2nc(C(C)(C)C)cc2NC(=O)Nc2ccc(OCCN3CCOCC3)c3ccccc23)cc1 [doramapimod]
Outline: as §1

[8] = compound: Cc1ccc(C(=O)N(CCCN)[C@@H](c2nc3cc(Cl)ccc3c(=O)n2Cc2ccccc2)C(C)C)cc1 [ispinesib]
Outline: as §1

[9] = compound: C[C@H](Nc1ncnc2nc[nH]c12)c1cc2cccc(Cl)c2c(=O)n1-c1ccccc1 [duvelisib]
Outline: as §1

[10] = compound: Cc1cc(Nc2cc(N3CCN(C)CC3)nc(Sc3ccc(NC(=O)C4CC4)cc3)n2)n[nH]1 [tozasertib]
Outline: as §1

Measured: log2 fold change

POLA1 (UniProt P09884)
inactive: [1] 0.01 | [2] -0.041 | [3] 0.065 | [4] -0.048 | [5] -0.069 | [6] 0.09 | [7] -0.029 | [8] -0.036

PLGRKT (UniProt Q9HBL7)
inactive: [1] -0.012 | [3] 0.309 | [4] -0.092 | [9] 0.185 | [5] -0.049 | [10] 0.189 | [6] -0.057

POLR2L (UniProt P62875)
inactive: [1] -0.043 | [3] -0.046 | [4] 0.09 | [9] 0.029 | [5] 0.114 | [10] 0.063 | [6] -0.021 | [8] -0.104

PPIL1 (UniProt Q9Y3C6)
inactive: [1] -0.029 | [2] 0.038 | [3] 0.018 | [4] 0.012 | [5] 0.045 | [6] 0.014 | [7] 0.031 | [8] -0.089

PLXNA3 (UniProt P51805)
inactive: [1] 0.023 | [2] -0.248 | [3] 0.027 | [9] 0.334 | [5] 0.047 | [10] -0.11 | [6] -0.148 | [7] -0.011

PNPLA4 (UniProt P41247)
inactive: [1] 0.319 | [4] 0.559 | [6] 0.117 | [8] -0.093
active: [2] -0.651 | [7] 0.895

PPIL3 isoform 2 (UniProt Q9H2H8)
inactive: [1] -0.026 | [2] 0.061 | [3] 0.009 | [9] -0.051 | [5] -0.026 | [10] 0.105 | [6] 0.122 | [7] 0.032 | [8] -0.176

PML (UniProt P29590)
inactive: [1] -0.011 | [2] 0.017 | [3] 0.025 | [4] -0.027 | [5] -0.019 | [6] -0.051 | [7] -0.054 | [8] -0.027

PLEKHM2 (UniProt Q8IWE5)
inactive: [1] 0.023 | [2] -0.162 | [3] 0.02 | [4] -0.047 | [5] -0.06 | [6] 0.04 | [7] 0.064 | [8] -0.02

PMAIP1 (UniProt Q13794)
inactive: [1] -0.005 | [3] 0.02 | [4] -0.065 | [9] 0.233 | [5] -0.048 | [10] -0.128 | [6] -0.041 | [8] 0.016

POMGNT2 (UniProt Q8NAT1)
inactive: [1] 0.012 | [2] -0.036 | [4] -0.019 | [9] 0.021 | [5] 0.087 | [6] -0.018 | [7] 0.027

PLIN3 isoform 2 (UniProt O60664)
inactive: [1] 0.117 | [3] -0.162

POLR3D (UniProt P05423)
inactive: [1] 0.088 | [2] -0.035 | [3] -0.064 | [4] 0.112 | [5] -0.056 | [6] -0.085 | [7] 0.022 | [8] -0.05

POM121C (UniProt A8CG34)
inactive: [1] 0.021 | [2] -0.275 | [7] 0.057 | [8] -0.071

PLG (UniProt P00747)
inactive: [1] -0.025 | [2] 0.038 | [4] 0.072 | [9] -0.259 | [5] -0.035 | [10] -0.148 | [6] -0.257 | [7] 0.089

PNKP (UniProt Q96T60)
inactive: [1] 0.135 | [2] -0.016 | [4] 0.106 | [9] 0.021 | [5] 0.158 | [10] -0.328 | [6] 0.133 | [7] 0.017 | [8] 0.007

PNPLA8 (UniProt Q9NP80)
inactive: [1] -0.009 | [2] -0.12 | [3] 0.002 | [4] -0.034 | [5] 0.031 | [6] -0.002 | [7] 0.023 | [8] -0.051

Random excerpt: 2 entries already listed, in no set order.
POM121C (UniProt A8CG34)
inactive: [1] 0.021 | [2] -0.275 | [7] 0.057 | [8] -0.071

PNPLA8 (UniProt Q9NP80)
inactive: [1] -0.009 | [2] -0.12 | [3] 0.002 | [4] -0.034 | [5] 0.031 | [6] -0.002 | [7] 0.023 | [8] -0.051

Carrying on.

POLR2C (UniProt P19387)
inactive: [1] 0.019 | [2] 0.127 | [3] -0.062 | [4] 0.163 | [6] 0.113 | [7] 0.012 | [8] 0.034

PLXNB1 (UniProt O43157)
inactive: [1] 0.272 | [3] 0.012
